The record followed here is US20230250438.

In the data set the target is Transferrin receptor (TfR) (Homo sapiens) (UniProt P02786). The experiment in a line: pull-down. The conditions noted are these: SB18, 5 mM MgCl2, 37 C, protein details: captured on Dynabeads TALON (His tag implied), single-stranded DNA, letters built from the parent sequence and the stated change.

On to “AAGTGTCGGTGATTTGCCTCGTCGCT [TfR-01-01-26]”, for which the binding result (B = Bn-dU [B=Bn-dU (T) at 4,6,10,13,14,15,19,22,26], purified recombinant protein, variant of TfR-01-01-41) is listed as “binds”.

Turning to “AGTGTCGGTGATTTGCCTCGTCGCTCCAATGT [TfR-01-01-32]”, under “B = Bn-dU [B=Bn-dU (T) at 3,5,9,12,13,14,18,21,25,30,32], purified recombinant protein, variant of TfR-01-01-41”, the binding result is given as “binds”.

On to “GAATTCAAAAGTGTCGGTGATTTGCCTCGTCGCT [TfR-01-01-34]”, for which the binding result (B = Bn-dU [B=Bn-dU (T) at 4,5,12,14,18,21,22,23,27,30,34], purified recombinant protein, variant of TfR-01-01-41) is on record as “binds”.

With “GAATTCAAAAGTGTCGGTGATTTGCCTCGTCGCTCCAATGT [TfR-01-01-41]”, the binding result (B = 5-(N-benzylcarboxyamide)-2'-deoxyuridine (Bn-dU) [B=Bn-dU (T) at 4,5,12,14,18,21,22,23,27,30,34,39,41], purified recombinant …) is “binds”.
